Measured values from the supplement of paper PMC12067093, “Discovery and optimisation of a covalent ligand for TRIM25 and its application to targeted protein ubiquitination” (Chemical Science, 2025).
Some of the results follow.

Amino acid sequences for entries named in this document (tags omitted).
UniProt Q13838, whole entry, looked up: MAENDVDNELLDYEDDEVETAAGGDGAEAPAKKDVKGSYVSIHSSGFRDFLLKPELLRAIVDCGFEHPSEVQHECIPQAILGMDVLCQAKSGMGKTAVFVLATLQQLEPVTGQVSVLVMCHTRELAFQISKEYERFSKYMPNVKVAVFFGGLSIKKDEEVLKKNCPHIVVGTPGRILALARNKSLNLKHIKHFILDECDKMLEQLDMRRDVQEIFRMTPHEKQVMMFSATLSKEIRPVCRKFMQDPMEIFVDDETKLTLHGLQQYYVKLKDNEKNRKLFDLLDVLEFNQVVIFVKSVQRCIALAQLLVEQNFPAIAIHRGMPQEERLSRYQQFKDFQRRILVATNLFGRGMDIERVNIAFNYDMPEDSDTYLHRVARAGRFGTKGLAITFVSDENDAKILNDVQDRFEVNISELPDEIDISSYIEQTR

Assays:
[1] = target: DDX39B_Q13838_165_KNCPHIVVGTPGR (UniProt Q13838); assay: probe-labelled cysteine peptide fold change vs DMSO (competition) (log2 fold change); higher = less target engagement (more negative = stronger competition); conditions: THP-1, incubation time: 4 h
[2] = target: DDX39B_Q13838_165_NCPHIVVGTPGR (UniProt Q13838); assay: as above; conditions: THP-1, incubation time: 4 h
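Also: competitive profiling in live THP-1 cells: cysteine peptides tagged with an iodoacetamide desthiobiotin (IA-DTB) probe, intensity after compound treatment relative to DMSO-treated cells.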

## Cc1cc(C(=O)N2CCCN(C(=O)CCl)CC2)ccc1-c1ccccc1 [compound 10]
[1]; 10 µM
  probe-labelled cysteine peptide fold change: -0.117
[1]; 50 µM
  probe-labelled cysteine peptide fold change: -0.173
[2]; 10 µM
  probe-labelled cysteine peptide fold change: 0.0169
[2]; 50 µM
  probe-labelled cysteine peptide fold change: 0.0264
